Among the data in patent publication US20140328850A1 are binding values, retold here.

Protein sequences, listed by entry. Tags and fused reporters are not part of them. Lines headed by an entry give the natural chain unless they say otherwise; changes in a name come on top.
UniProt Q9ULZ1: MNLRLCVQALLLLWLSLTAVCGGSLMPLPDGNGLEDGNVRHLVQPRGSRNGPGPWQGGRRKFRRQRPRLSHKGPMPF

This test concerns the target apelin (UniProt Q9ULZ1). Briefly: ELISA on biotinylated apelin peptides captured on neutravidin plates. Background: In an ELISA, binding on a coated surface is turned into a signal by an enzyme label.

No constants are given. Whether binding was seen depends on the method and setting. Some results given as binding are weak or reduced against the parent protein; the word gives no strength.

B1: antibody A (Ab A) (antibody, V domains shown)
VH: NVQLVESGGGLVKPGGSLKLSCVASGFIFSDYVMSWVRQTPEKRLEWVATISDGGIYTSYPDNIKGRFTISRDNANNKLYLQMSHLRSEDTAMYFCSRAAITSDDFDFWGQGTALTVSS
VL: DIVMSQSPSSLAVSAGEKVTMSCKSSQSLLDSRTRKNYLAWYQQKPGQSPKLLISWASIRESGVPDRFTGSGSGTDFTLSISSVQAEDLAVYYCKQSYYLLTFGAGTKLELKR
Regarding B1, the binding entry is “binds”.
